# Laboratory results published in the supplement of paper PMC4635364.
# Structures can show the parent of a compound that is named as a salt. The list shows a part of the results. Single values are uncertain here, since repeats match poorly.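 Human fetal ventral-midbrain neural progenitor line ReNCell VM, differentiated without mitogens. Images stained for doublecortin (early neurons) or tyrosine hydroxylase (dopaminergic neurons) were scored by blinded raters against untreated wells (0 = no change). Repeats and both raters were averaged, and compounds averaging 2 or higher were picked as hits for retesting.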
# Key:
# [1] = system: ReNCell VM; assay: neuronal differentiation score (DCX+ cell fraction vs untreated, manual image score) (score (-3 to 3)); higher = more neuronal differentiation; details: 2 uM, 2 weeks
# [2] = system: ReNCell VM; assay: dopaminergic neuron differentiation score (TH+ cell fraction vs untreated, manual image score) (score (0 to 3)); higher = more TH+ dopaminergic neuron differentiation; details: 2 uM, 4 weeks, BDNF 10 ng/ml + GDNF 10 ng/ml
compound,measurement,setting,value
CCCCC(=O)N(Cc1ccc(-c2ccccc2-c2nnn[nH]2)cc1)[C@H](C(=O)O)C(C)C,neuronal differentiation score,[1]; library: Spectrum,inactive: 0
same,dopaminergic neuron differentiation score,[2]; library: Spectrum,inactive: 0
CC(=O)c1ccc2c(c1)N(CCCN1CCC(CCO)CC1)c1ccccc1S2,neuronal differentiation score,[1]; library: Spectrum,inactive: 1
same,dopaminergic neuron differentiation score,[2]; library: Spectrum,inactive: 0
Cc1ccc(Cl)c(Nc2ccccc2C(=O)O)c1Cl [Meclofenamic acid sodium salt monohydrate],neuronal differentiation score,[1]; library: Prestwick,inactive: 0
same,dopaminergic neuron differentiation score,[2]; library: Prestwick,inactive: 0
CNC(=O)[C@@H](Cc1ccccc1)N(C)C(=O)[C@@H](Cc1ccc2ccccc2c1)N(C)C(=O)/C=C/CC(C)(C)N [Tabimorelin],neuronal differentiation score,[1]; library: Tocriscreen,inactive: 0
same,dopaminergic neuron differentiation score,[2]; library: Tocriscreen,inactive: 0
CNCCC=C1c2ccccc2C=Cc2ccccc21 [Norcyclobenzaprine],neuronal differentiation score,[1]; library: Prestwick,inactive: 0
same,dopaminergic neuron differentiation score,[2]; library: Prestwick,inactive: 0
Cc1ncc(CO)c(CO)c1O,neuronal differentiation score,[1]; library: Spectrum,inactive: 0
same,dopaminergic neuron differentiation score,[2]; library: Spectrum,inactive: 0
CC(C)[C@H](CO)Nc1nc(Nc2cc(N)cc(Cl)c2)c2ncn(C(C)C)c2n1 [Aminopurvalanol A],neuronal differentiation score,[1]; library: Tocriscreen,inactive: 0
same,dopaminergic neuron differentiation score,[2]; library: Tocriscreen,inactive: 0
CC(=O)Oc1cccc2c1C(=O)c1c(OC(C)=O)cc(C(=O)O)cc1C2=O [Diacerein],neuronal differentiation score,[1]; library: Prestwick,inactive: 0
same,dopaminergic neuron differentiation score,[2]; library: Prestwick,inactive: 0
C=CCSCC=C,neuronal differentiation score,[1]; library: Spectrum,inactive: 0
same,dopaminergic neuron differentiation score,[2]; library: Spectrum,inactive: 0
O=C(CCCN1CCC(O)(c2ccc(Cl)cc2)CC1)c1ccc(F)cc1 [Haloperidol hydrochloride],neuronal differentiation score,[1]; library: Tocriscreen,inactive: 0
same,dopaminergic neuron differentiation score,[2]; library: Tocriscreen,inactive: 0
CCCn1c(=O)c2[nH]c(C3CCCC3)nc2n(CCC)c1=O,neuronal differentiation score,[1]; library: Tocriscreen,inactive: 0
same,dopaminergic neuron differentiation score,[2]; library: Tocriscreen,inactive: 0
COc1cc(NS(=O)(=O)c2ccc(N)cc2)ncn1,neuronal differentiation score,[1]; library: Spectrum,inactive: 0
same,dopaminergic neuron differentiation score,[2]; library: Spectrum,inactive: 0
CN(C)CCOc1ccc(/C(=C(/CCCl)c2ccccc2)c2ccccc2)cc1,neuronal differentiation score,[1]; library: Spectrum,inactive: 0
same,dopaminergic neuron differentiation score,[2]; library: Spectrum,inactive: 1
O=C(/C=C/C(=O)Oc1ccccc1C(=O)O)Oc1ccccc1C(=O)O,neuronal differentiation score,[1]; library: Spectrum,inactive: 0
same,dopaminergic neuron differentiation score,[2]; library: Spectrum,inactive: 0
CC(=O)O[C@@H]1CC2C(C)(C)[C@H](O)C=C[C@]2(C)C2CC[C@@]3(C)[C@H](c4ccoc4)OC(=O)C4OC43[C@@]21C (stereo not given in full),neuronal differentiation score,[1]; library: Spectrum,inactive: 0
same,dopaminergic neuron differentiation score,[2]; library: Spectrum,inactive: 0
CC(C)/N=c1\cc2n(-c3ccc(Cl)cc3)c3ccccc3nc-2cc1Nc1ccc(Cl)cc1,neuronal differentiation score,[1]; library: Spectrum,inactive: 0
same,dopaminergic neuron differentiation score,[2]; library: Spectrum,inactive: 0
O=C(O)COCCN1CCN(C(c2ccccc2)c2ccc(Cl)cc2)CC1 (stereo not given),neuronal differentiation score,[1]; library: Spectrum,inactive: 0
same,dopaminergic neuron differentiation score,[2]; library: Spectrum,inactive: 1
COc1ccc(CC2c3cc(OC)c(OC)cc3CC[N+]2(C)CCC(=O)OCCCCCOC(=O)CC[N+]2(C)CCc3cc(OC)c(OC)cc3C2Cc2ccc(OC)c(OC)c2)cc1OC (stereo not given),neuronal differentiation score,[1]; library: Spectrum,inactive: 0
same,dopaminergic neuron differentiation score,[2]; library: Spectrum,inactive: 0
O=C(O)CNC(=O)C(CS)Cc1ccccc1 (racemic) [DL-Thiorphan],neuronal differentiation score,[1]; library: LOPAC,inactive: 0
same,dopaminergic neuron differentiation score,[2]; library: LOPAC,inactive: 0
CC1=C(C(=O)O)N2C(=O)[C@@H](NC(=O)[C@H](N)C3=CCC=CC3)[C@H]2SC1,neuronal differentiation score,[1]; library: Spectrum,inactive: 0
same,dopaminergic neuron differentiation score,[2]; library: Spectrum,inactive: 0
C=CC(C)(O)CCC=C(C)CCC=C(C)C (mixture of isomers),neuronal differentiation score,[1]; library: Spectrum,inactive: 0
same,dopaminergic neuron differentiation score,[2]; library: Spectrum,inactive: 0
CCC1(C)CC(=O)NC1=O (stereo not given),neuronal differentiation score,[1]; library: Spectrum,inactive: 0
same,dopaminergic neuron differentiation score,[2]; library: Spectrum,inactive: 0
O=C(O)c1c(Sc2ccccc2)c2cc(Cl)ccc2n1Cc1ccc(Cl)cc1,neuronal differentiation score,[1]; library: Tocriscreen,inactive: 0
same,dopaminergic neuron differentiation score,[2]; library: Tocriscreen,inactive: 0
O=C(O)CCC(=O)c1ccc(-c2ccccc2)cc1,neuronal differentiation score,[1]; library: Spectrum,inactive: 0
same,dopaminergic neuron differentiation score,[2]; library: Spectrum,inactive: 0
CC(C)[C@@H]1CC[C@@H](C)C[C@H]1OC(=O)c1ccccc1,neuronal differentiation score,[1]; library: Spectrum,inactive: 0
same,dopaminergic neuron differentiation score,[2]; library: Spectrum,inactive: 0
CCOC(N)=O,neuronal differentiation score,[1]; library: Spectrum,inactive: 0
same,dopaminergic neuron differentiation score,[2]; library: Spectrum,inactive: 0
Nc1ccc(S(=O)(=O)Nc2cnc3ccccc3n2)cc1 [Sulfaquinoxaline sodium salt],neuronal differentiation score,[1]; library: Prestwick,inactive: 0
same,dopaminergic neuron differentiation score,[2]; library: Prestwick,inactive: 0
OCc1ccccc1O[C@@H]1O[C@H](CO)[C@@H](O)[C@H](O)[C@H]1O [Salicin],neuronal differentiation score,[1]; library: Phytochemical,inactive: 0
same,dopaminergic neuron differentiation score,[2]; library: Phytochemical,inactive: 0
COC(=O)C(Cc1ccccc1)NC(=O)/C(=C1/OC(=O)C(c2ccccc2)=C1O)c1ccccc1 (stereo not given),neuronal differentiation score,[1]; library: Spectrum,inactive: 0
same,dopaminergic neuron differentiation score,[2]; library: Spectrum,inactive: 0
Cc1c(Cl)cccc1Nc1ncccc1C(=O)O [Clonixin Lysinate],neuronal differentiation score,[1]; library: Prestwick,inactive: 0
same,dopaminergic neuron differentiation score,[2]; library: Prestwick,inactive: 0

# Looked up one by one from above, 3 records:
compound,measurement,setting,value
CCCn1c(=O)c2[nH]c(C3CCCC3)nc2n(CCC)c1=O,dopaminergic neuron differentiation score,[2]; library: Tocriscreen,inactive: 0
CC(=O)c1ccc2c(c1)N(CCCN1CCC(CCO)CC1)c1ccccc1S2,neuronal differentiation score,[1]; library: Spectrum,inactive: 1
CC(C)[C@H](CO)Nc1nc(Nc2cc(N)cc(Cl)c2)c2ncn(C(C)C)c2n1 [Aminopurvalanol A],dopaminergic neuron differentiation score,[2]; library: Tocriscreen,inactive: 0
